Test results from US20090111753A1, “Nogo-A Polypeptide Fragments, Variant Nogo Receptor-1 Polypeptides, and Uses Thereof” (Yale University, priority 2004, published 2009).
Positions count from the first letter of the chain named. In names and notes the source's numbering stands. These are yes or no findings as the source states them, for the method shown. Some binding calls cover weakened binding; strength is not graded here. Each block holds one binder with its values, some of them ahead of it.

Key:
Test in all cases: AP-ligand binding, COS-7
[1] = target: T1, human NgR1 alanine mutant 202, 205, 227 (human) (UniProt Q9BZR6)
T1 sequence: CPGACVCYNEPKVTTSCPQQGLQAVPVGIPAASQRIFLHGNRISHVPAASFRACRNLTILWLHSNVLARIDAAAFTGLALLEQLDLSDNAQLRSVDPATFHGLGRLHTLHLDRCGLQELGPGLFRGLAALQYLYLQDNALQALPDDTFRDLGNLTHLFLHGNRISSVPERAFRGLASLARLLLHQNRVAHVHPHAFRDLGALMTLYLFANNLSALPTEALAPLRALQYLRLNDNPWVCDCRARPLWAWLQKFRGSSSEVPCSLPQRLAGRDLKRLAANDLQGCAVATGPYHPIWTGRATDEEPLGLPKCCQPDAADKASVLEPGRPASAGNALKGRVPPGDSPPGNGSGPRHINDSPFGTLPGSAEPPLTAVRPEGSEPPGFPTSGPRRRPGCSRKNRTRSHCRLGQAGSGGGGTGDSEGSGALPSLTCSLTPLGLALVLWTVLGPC

[2] = target: T2, human NgR1 alanine mutant 189, 191, 237 (human) (UniProt Q9BZR6)
T2 sequence: T1 sequence with R163A, S165A, A176H, A179D, A201R, N211A

[3] = target: T3, human NgR1 alanine mutant 82 (human) (UniProt Q9BZR6)
T3 sequence: T1 sequence with N56A, A176H, A179D, A201R

[4] = target: T4, human NgR1 alanine mutant 171, 172, 175, 176, 196, 199 (human) (UniProt Q9BZR6)
T4 sequence: T1 sequence with D145A, D146A, R149A, D150A, R170A, R173A, A176H, A179D, A201R

[5] = target: T5, human NgR1 alanine mutant 256, 259 (human) (UniProt Q9BZR6)
T5 sequence: T1 sequence with A176H, A179D, A201R, R230A, D233A

[6] = target: T6, human NgR1 alanine mutant 143, 144 (human) (UniProt Q9BZR6)
T6 sequence: T1 sequence with Q117A, E118A, A176H, A179D, A201R

binding [1]: binds | binding [2]: binds | binding [3]: binds | binding [4]: binds | binding [5]: binds | binding [6]: binds
B1: AP-fused Amino-Nogo fragment B4C (a.a. 950-1018) (ligand)
chain: LLPPDVSALATQAEIESIVKPKVLVKEAEKKLPSDTEKEDRSPSAIFSAELSKTSVVDLLYWRDIKKTG
notes: also called AmNg B4C; AP-B4C; not shown: alkaline phosphatase (AP), vector pcAP6

binding [1]: binds | binding [2]: binds | binding [3]: binds | binding [4]: binds | binding [5]: binds | binding [6]: binds
B2: AP-Nogo-66 (ligand, UniProt Q9NQC3 1055-1120, looked up)
chain: RIYKGVIQAIQKSDEGHPFRAYLESEVAISEELVQKYSNSALGHVNCTIKELRRLFLVDDLVDSLK
notes: domain: Nogo-66; construct described elsewhere (Fournier 2001); also called AP-Ng66; Ng66; not shown: alkaline phosphatase (AP); construct described elsewhere
